Sequences of proteins named here, by UniProt entry; tags and fusion partners are left off. A change or cut given only in a name is not applied to a line headed by its entry.
UniProt Q9Y3Z3: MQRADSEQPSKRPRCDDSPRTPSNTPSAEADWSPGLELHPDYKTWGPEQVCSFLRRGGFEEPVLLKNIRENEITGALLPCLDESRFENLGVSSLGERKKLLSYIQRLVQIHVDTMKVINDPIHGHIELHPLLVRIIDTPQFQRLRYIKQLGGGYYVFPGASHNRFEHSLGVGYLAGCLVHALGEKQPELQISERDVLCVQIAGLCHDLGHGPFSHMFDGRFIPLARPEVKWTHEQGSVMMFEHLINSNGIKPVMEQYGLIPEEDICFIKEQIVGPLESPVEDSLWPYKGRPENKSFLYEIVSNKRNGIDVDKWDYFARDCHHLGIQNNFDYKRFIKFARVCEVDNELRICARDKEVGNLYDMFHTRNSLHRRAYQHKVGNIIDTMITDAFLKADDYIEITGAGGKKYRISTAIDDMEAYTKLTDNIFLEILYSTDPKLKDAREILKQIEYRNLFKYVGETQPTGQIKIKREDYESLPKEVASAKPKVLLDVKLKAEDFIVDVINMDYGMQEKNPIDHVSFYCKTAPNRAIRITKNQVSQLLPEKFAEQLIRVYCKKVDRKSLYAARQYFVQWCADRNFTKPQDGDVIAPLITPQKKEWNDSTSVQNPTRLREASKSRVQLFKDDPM
UniProt Q9Y4B6: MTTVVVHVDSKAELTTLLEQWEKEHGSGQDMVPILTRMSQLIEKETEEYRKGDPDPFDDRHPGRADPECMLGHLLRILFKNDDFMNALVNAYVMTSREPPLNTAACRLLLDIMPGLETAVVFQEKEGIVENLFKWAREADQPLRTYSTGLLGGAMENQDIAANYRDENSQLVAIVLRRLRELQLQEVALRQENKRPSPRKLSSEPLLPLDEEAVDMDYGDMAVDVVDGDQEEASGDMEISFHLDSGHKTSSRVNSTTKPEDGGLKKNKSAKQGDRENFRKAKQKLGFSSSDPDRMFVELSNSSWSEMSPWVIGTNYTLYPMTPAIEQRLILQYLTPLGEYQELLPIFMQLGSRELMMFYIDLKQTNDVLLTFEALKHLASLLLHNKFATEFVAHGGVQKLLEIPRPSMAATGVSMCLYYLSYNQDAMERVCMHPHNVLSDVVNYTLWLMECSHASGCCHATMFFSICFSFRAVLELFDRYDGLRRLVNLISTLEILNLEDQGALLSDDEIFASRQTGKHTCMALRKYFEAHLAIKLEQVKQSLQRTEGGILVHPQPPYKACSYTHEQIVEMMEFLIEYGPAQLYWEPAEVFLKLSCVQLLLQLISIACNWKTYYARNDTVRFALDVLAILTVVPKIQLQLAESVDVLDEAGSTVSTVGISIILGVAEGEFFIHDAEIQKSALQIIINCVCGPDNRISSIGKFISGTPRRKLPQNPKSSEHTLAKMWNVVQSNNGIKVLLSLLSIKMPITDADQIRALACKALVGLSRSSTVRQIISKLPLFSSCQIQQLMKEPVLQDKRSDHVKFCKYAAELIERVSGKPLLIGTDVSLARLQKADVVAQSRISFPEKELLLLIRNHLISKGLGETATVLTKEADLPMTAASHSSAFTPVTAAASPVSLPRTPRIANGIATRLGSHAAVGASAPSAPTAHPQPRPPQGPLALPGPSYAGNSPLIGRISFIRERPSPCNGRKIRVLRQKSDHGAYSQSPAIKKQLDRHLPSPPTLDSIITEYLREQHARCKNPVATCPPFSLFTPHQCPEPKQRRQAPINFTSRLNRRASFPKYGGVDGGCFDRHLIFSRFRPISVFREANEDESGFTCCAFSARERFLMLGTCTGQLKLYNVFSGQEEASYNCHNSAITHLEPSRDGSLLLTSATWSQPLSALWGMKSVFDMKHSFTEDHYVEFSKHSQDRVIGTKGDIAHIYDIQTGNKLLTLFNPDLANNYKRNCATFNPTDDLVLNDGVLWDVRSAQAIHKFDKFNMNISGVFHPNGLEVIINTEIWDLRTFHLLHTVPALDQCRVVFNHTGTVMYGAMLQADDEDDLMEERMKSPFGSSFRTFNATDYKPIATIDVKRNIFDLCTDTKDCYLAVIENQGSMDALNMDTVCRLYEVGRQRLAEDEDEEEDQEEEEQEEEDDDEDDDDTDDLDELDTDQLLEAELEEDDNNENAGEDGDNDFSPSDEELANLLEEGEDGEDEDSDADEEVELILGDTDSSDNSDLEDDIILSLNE
UniProt Q16531: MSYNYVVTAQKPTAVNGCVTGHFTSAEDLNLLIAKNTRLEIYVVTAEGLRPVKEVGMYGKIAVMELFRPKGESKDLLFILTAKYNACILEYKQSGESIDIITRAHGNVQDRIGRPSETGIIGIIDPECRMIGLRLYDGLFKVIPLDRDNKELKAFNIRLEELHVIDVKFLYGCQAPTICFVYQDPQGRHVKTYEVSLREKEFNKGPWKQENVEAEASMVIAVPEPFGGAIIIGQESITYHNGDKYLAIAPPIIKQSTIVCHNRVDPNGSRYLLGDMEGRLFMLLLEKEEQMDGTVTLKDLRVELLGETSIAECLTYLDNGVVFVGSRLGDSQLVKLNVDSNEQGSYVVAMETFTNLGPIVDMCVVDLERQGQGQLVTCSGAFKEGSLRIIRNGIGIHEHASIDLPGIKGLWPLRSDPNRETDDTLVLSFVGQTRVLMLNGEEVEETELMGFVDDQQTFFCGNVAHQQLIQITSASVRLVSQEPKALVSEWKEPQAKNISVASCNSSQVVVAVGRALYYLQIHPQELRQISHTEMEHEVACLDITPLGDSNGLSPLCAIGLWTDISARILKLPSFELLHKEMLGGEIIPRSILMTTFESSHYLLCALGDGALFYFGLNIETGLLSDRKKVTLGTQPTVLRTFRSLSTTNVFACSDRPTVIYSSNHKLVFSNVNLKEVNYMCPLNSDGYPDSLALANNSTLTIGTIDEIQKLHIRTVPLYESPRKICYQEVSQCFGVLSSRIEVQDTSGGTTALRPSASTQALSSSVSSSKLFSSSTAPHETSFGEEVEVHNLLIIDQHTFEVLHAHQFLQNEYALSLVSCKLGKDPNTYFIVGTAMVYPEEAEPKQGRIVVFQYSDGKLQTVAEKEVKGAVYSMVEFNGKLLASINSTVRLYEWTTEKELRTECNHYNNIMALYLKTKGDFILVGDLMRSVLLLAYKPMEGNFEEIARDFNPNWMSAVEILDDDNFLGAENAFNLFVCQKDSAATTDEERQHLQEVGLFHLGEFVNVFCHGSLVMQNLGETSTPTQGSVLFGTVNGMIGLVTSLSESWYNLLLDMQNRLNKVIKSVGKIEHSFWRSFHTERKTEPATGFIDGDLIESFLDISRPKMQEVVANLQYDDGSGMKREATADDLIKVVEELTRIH

In PMC3715410:

Biological target: HA-tagged human SAMHD1 ΔC (C-terminal truncation) (human) (UniProt Q9Y3Z3)
Assay: co-IP; HA-SAMHD1 (WT, ΔC, ΔN) transiently co-expressed in 293T cells with the autologous FLAG-Vpx or FLAG-Vpr; immunoprecipitated from whole cell extracts with anti-HA resin; FLAG-Vpx/Vpr, endogenous DCAF1 and DDB1 detected by western blotting

DCAF1 (endogenous) (from UniProt Q9Y4B6 1-1507)
binding: no binding

DDB1 (endogenous) (from UniProt Q16531 1-1140)
binding: no binding

No constants are given. Whether binding was seen depends on the method and setting. Binding seen in cells or lysates may run through a third protein.
